Binding data for 4 molecules are collected here from patent US20100322948A1, “Bone morphogenetic protein (BMP)-binding domains of proteins of the repulsive guidance molecule (RGM) protein family and functional fragments thereof, and use of same” (ABBOTT GMBH & CO. KG, priority 2007, published 2010).

These are yes or no findings as the source states them, for the method shown. Some entries that bind do so weakly or less than the wild type. For some of these results: Tags and fused reporters may be left off the sequences shown.

Experiment [1] addresses T1, Recombinant human BMP-2 (human) (UniProt P12643).
T1 sequence (looked up): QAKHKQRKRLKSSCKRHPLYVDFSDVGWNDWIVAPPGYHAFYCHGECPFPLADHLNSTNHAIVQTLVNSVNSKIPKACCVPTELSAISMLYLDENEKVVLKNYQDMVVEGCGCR
As to the kind of experiment: ELISA, immobilised Fc fusion protein, BMP-2 detected with anti-BMP-2 biotin antibody. A general note: In an ELISA, binding on a coated surface is turned into a signal by an enzyme label.

Experiment [2] deals with T2, RGMA-Fc (human) (UniProt Q96B86).
T2 sequence: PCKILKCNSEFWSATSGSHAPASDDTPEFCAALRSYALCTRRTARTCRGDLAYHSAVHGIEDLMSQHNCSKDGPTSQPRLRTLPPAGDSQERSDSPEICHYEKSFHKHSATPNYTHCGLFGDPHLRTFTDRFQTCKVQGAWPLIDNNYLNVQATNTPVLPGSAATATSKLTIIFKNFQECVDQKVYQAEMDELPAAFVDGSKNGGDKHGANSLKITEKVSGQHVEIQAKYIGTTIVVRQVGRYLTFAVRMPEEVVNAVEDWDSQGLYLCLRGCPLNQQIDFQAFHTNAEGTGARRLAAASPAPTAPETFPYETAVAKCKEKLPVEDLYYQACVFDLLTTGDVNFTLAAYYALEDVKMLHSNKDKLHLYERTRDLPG
Description: ELISA, RGMA-Fc immobilised, BMP-4 titrated, detection with anti-BMP-4 biotin antibody.

Experiment [3] has as its target T3, Recombinant human BMP-4 (human) (UniProt P12644).
T3 sequence (looked up): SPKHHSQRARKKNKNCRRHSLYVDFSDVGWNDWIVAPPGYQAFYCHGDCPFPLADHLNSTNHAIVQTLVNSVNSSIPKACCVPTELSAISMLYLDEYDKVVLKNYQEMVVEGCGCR
As to the kind of experiment: ELISA on coated BMP-4 (2,5 µg/ml); control series of R&D RGMA, Konz taken as that of RGMA.

For experiment [4], the target named is T2, RGMA-Fc (human). As to the kind of experiment: ELISA, RGMA-Fc immobilised, BMP-2 titrated, detection with anti-BMP-2 biotin antibody.

B1: RGMA-Fc (Fc fusion, not shown: a dimerising Fc or GST)
chain: T2 sequence
On to B1, for which, in experiment [1], the binding result is recorded as “binds”.

B2: Recombinant human BMP-4 (ligand, UniProt P12644 293-408, looked up)
chain: T3 sequence (looked up)
On to B2, for which the binding entry with RGMA-Fc (human) [2] is “binds”.

B3: R&D RGMA (protein, human, UniProt Q96B86 48-422, looked up)
recombinant human RGM A: CKILKCNSEFWSATSGSHAPASDDTPEFCAALRSYALCTRRTARTCRGDLAYHSAVHGIEDLMSQHNCSKDGPTSQPRLRTLPPAGDSQERSDSPEICHYEKSFHKHSATPNYTHCGLFGDPHLRTFTDRFQTCKVQGAWPLIDNNYLNVQVTNTPVLPGSAATATSKLTIIFKNFQECVDQKVYQAEMDELPAAFVDGSKNGGDKHGANSLKITEKVSGQHVEIQAKYIGTTIVVRQVGRYLTFAVRMPEEVVNAVEDWDSQGLYLCLRGCPLNQQIDFQAFHTNAEGTGARRLAAASPAPTAPETFPYETAVAKCKEKLPVEDLYYQACVFDLLTTGDVNFTLAAYYALEDVKMLHSNKDKLHLYERTRDLPG
Regarding B3, the binding result in experiment [3] is reported as “binds”.

B4: Recombinant human BMP-2 (ligand, UniProt P12643 283-396, looked up)
chain: T1 sequence (looked up)
B4: in the experiment with RGMA-Fc (human) [4], the binding entry is “binds”.
